Laboratory results: PubChem BioAssay AID602196 (INSERM, 2012)
This is one part, drawn at random, of about 23,000 reagents tested. 455 of them (2%) count as active. 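Active includes both protection and sensitisation; some change values fall well beyond the stated -50 to +50 range.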 Further read-outs or replicates are left out here. No sequences are given here. Not stated in the record: the amount of reagent.

Assay: 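Modifiers of cisplatin sensitivity in A549 cells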
Cells: human A549 lung cancer cells
Knock-down reagent: siRNA pair against human genes
Duration: 48 h transfection before cisplatin; time from cisplatin to read-out not stated
Challenge: cisplatin at a dose killing half of control-siRNA cells; exact dose and duration not given
Measurement: 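Cisplatin cell death as a shift from the 50% death seen with control siRNA; siRNAs toxic or growth-blocking alone scored 0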
Direction: two-siRNA summed score (-2 to +2): higher = both siRNAs protect from cisplatin killing; -2 means both sensitise
Rule for the call: 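siRNAs harmful alone (LDH or WST-1) get 0; others get +1 for less and -1 for more cisplatin killing; genes are active when the two siRNAs give the same sign, summing to ±2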
Calls: active = both siRNAs shift cisplatin killing the same way; inactive = no consistent shift, or siRNA harmful alone

no.	gene	two-siRNA summed score (-2 to +2)	call
1	UCHL3	1	inactive
2	SLC25A21	0	inactive
3	DAND5	0	inactive
4	CCNT2	0	inactive
5	SEZ6L2	0	inactive
6	TWIST2	0	inactive
7	AQP7	0	inactive
8	ATP9A	0	inactive
9	ZNF276	0	inactive
10	DCPH1	0	inactive
11	MS4A10	-1	inactive
12	CXCL11	0	inactive
13	SAMD3	-1	inactive
14	TGFBR1	1	inactive
15	MAP3K11	1	inactive
16	INSIG2	0	inactive
17	SEC24D	1	inactive
18	FRG2DP	0	inactive
19	TNFSF12	0	inactive
20	C9orf40	0	inactive
21	NSDHL	0	inactive
22	LOC440597	1	inactive
23	LOC441559	0	inactive
24	MVB12B	1	inactive
25	TTLL5	0	inactive
26	LOC440124	0	inactive
27	SCNN1D	-1	inactive
28	TMLHE	0	inactive
29	FAM135A	0	inactive
30	C4BPA	1	inactive
31	PAX8	0	inactive
32	PPFIBP2	1	inactive
33	LAGE3	0	inactive
34	LOC441023	0	inactive
35	GASAL1	0	inactive
36	BLZF1	0	inactive
37	RTN3	0	inactive
38	LOC440197	0	inactive
39	ACAD10	1	inactive

Copied from the entries so far, 2 entries:
no.	gene	two-siRNA summed score (-2 to +2)	call
25	TTLL5	0	inactive
26	LOC440124	0	inactive
